According to article PMC12599624:
These are yes or no findings as the source states them, for the method shown. In cells and extracts the contact can be indirect. These calls come from enrichment with a bait or labelling near it, and not all partners need be listed. Blank lines part the entries; values can stand above or below the molecule they belong to.

Protein sequences, listed by entry. Tags and fused reporters are not part of them. Residues count along the entry.
UniProt Q13283: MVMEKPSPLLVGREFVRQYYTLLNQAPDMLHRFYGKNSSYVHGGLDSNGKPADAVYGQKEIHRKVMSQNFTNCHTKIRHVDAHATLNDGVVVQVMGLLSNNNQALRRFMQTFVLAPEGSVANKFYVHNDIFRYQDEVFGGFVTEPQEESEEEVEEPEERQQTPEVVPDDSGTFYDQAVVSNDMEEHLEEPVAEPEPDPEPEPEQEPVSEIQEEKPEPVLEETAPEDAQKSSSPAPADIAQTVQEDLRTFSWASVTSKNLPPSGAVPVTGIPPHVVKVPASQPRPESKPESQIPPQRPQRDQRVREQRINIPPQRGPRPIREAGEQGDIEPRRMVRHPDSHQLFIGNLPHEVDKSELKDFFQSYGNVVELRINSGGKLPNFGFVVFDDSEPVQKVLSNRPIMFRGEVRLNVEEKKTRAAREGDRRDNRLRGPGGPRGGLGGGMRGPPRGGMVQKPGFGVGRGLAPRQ
UniProt P22314: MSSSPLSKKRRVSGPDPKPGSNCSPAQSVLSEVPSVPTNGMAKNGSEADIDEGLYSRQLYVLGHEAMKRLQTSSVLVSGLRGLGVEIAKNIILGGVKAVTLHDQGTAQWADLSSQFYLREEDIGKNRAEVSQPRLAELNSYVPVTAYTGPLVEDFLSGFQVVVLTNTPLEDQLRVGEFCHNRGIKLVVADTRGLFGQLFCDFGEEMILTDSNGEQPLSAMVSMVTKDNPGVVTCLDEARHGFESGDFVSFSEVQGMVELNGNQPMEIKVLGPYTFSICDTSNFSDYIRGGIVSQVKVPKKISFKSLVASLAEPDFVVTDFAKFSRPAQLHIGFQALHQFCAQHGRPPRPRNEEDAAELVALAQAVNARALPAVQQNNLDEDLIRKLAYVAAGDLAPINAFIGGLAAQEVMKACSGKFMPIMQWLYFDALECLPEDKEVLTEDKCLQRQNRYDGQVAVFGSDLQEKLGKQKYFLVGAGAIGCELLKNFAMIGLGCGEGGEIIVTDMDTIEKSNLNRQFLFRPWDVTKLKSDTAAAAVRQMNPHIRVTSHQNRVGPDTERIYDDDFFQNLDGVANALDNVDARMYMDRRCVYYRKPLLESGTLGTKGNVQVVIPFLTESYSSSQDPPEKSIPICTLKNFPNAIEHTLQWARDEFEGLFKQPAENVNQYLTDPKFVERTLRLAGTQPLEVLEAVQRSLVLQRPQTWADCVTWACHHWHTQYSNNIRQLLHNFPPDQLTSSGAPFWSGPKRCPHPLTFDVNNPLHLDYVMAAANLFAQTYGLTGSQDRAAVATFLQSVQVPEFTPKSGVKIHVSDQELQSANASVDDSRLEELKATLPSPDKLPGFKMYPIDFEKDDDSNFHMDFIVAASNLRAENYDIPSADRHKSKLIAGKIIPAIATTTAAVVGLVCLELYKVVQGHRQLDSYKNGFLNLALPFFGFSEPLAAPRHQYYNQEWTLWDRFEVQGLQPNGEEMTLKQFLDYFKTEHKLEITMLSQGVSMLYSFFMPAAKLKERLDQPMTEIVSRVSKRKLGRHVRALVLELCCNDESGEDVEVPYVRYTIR
UniProt Q92598: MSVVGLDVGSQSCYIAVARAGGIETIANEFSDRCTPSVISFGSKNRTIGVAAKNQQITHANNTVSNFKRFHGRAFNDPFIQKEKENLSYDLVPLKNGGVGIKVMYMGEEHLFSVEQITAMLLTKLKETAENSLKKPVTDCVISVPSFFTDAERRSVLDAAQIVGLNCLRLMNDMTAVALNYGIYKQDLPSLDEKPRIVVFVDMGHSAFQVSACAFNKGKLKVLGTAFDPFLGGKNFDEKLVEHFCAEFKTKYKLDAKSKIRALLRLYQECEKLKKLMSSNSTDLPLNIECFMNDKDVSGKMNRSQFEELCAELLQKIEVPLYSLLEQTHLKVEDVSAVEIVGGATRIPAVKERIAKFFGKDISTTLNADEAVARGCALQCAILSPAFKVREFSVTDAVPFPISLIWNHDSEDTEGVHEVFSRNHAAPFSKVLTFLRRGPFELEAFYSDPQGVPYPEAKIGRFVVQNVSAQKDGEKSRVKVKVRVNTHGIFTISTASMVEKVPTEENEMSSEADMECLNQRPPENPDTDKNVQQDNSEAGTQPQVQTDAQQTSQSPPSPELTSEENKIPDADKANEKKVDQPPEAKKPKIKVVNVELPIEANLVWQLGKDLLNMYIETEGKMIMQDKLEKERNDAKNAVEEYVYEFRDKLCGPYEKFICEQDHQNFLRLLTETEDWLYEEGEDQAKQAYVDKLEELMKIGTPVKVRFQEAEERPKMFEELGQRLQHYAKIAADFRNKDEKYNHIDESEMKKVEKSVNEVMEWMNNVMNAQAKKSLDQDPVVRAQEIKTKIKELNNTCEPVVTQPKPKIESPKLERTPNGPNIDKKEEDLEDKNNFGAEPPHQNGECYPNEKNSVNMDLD
UniProt Q8TEM1, residues 27-1887: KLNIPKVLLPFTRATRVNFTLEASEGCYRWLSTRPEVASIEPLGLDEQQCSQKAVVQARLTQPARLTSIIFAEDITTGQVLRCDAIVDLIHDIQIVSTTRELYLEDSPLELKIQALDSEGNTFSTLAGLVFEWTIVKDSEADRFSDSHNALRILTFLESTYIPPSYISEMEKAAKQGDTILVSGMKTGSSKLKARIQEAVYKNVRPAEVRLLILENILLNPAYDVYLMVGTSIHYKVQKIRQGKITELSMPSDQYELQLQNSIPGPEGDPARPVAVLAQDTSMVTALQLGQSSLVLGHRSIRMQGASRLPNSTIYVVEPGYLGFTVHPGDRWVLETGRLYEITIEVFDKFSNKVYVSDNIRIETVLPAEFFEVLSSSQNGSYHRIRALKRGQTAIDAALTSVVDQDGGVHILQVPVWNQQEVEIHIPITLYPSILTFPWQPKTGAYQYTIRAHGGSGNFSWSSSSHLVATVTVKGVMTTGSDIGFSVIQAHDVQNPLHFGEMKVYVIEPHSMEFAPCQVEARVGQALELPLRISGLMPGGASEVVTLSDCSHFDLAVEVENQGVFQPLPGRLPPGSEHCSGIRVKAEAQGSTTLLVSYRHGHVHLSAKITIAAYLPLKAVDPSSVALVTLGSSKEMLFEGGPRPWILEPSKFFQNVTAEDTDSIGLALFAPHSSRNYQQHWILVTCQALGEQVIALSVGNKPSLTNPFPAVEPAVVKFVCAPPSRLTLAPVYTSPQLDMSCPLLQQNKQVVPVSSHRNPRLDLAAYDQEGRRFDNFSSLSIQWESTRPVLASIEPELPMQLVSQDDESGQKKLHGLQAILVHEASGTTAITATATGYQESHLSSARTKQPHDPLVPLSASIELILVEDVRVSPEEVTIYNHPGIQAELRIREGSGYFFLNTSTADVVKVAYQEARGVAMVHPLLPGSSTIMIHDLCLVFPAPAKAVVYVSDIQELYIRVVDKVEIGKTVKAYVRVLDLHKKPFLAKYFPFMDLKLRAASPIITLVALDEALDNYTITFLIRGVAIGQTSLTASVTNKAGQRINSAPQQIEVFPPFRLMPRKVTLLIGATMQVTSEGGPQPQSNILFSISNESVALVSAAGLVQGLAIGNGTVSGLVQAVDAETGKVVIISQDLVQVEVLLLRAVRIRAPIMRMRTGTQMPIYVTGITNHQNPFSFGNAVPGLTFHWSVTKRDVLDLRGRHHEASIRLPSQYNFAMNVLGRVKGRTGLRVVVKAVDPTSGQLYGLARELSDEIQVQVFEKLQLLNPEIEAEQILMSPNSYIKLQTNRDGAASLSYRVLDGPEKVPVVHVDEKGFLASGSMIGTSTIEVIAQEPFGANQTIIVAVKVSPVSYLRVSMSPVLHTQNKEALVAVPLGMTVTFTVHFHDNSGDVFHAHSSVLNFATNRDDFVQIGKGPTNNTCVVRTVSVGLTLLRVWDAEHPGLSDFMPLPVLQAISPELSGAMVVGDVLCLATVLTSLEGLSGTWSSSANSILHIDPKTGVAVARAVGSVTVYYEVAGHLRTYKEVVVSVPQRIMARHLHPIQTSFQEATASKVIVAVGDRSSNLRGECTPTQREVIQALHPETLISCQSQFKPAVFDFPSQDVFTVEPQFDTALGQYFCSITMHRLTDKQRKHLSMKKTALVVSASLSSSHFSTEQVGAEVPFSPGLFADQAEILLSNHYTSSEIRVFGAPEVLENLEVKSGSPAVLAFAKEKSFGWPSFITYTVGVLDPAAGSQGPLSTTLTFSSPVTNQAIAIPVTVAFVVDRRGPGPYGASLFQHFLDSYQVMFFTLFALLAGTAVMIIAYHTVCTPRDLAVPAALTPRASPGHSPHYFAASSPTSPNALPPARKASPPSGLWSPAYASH

Target: Ras GTPase-activating protein-binding protein 1 (G3BP1) (human (endogenous in iPSC-derived motor neurons)) (UniProt Q13283)
Assay: affinity purification with mass spectrometry; immunoprecipitation with monoclonal mouse anti-G3BP1 antibody and Protein A microbeads from 300 ug lysate (SDS-free RIPA buffer) of iPSC-derived motor neurons (control, C9-1, C9-2), untreated or treated with 500 uM sodium arsenite for 1 h; on-column trypsin digestion, label-free quantitative proteomics

- binding: binds
Molecule: UBA1 (from UniProt P22314 1-1058)

- binding: binds
B1: SEPT9 (protein, UniProt Q9UHD8 1-586)
chain: MKKSYSGGTRTSSGRLRRLGDSSGPALKRSFEVEEVETPNSTPPRRVQTPLLRATVASSTQKFQDLGVKNSEPSARHVDSLSQRSPKASLRRVELSGPKAAEPVSRRTELSIDISSKQVENAGAIGPSRFGLKRAEVLGHKTPEPAPRRTEITIVKPQESAHRRMEPPASKVPEVPTAPATDAAPKRVEIQMPKPAEAPTAPSPAQTLENSEPAPVSQLQSRLEPKPQPPVAEATPRSQEATEAAPSCVGDMADTPRDAGLKQAPASRNEKAPVDFGYVGIDSILEQMRRKAMKQGFEFNIMVVGQSGLGKSTLINTLFKSKISRKSVQPTSEERIPKTIEIKSITHDIEEKGVRMKLTVIDTPGFGDHINNENCWQPIMKFINDQYEKYLQEEVNINRKKRIPDTRVHCCLYFIPATGHSLRPLDIEFMKRLSKVVNIVPVIAKADTLTLEERVHFKQRITADLLSNGIDVYPQKEFDEDSEDRLVNEKFREMIPFAVVGSDHEYQVNGKRILGRKTKWGTIEVENTTHCEFAYLRDLLIRTHMQNIKDITSSIHFEAYRVKRLNEGSSAMANGMEEKEPEAPEM

More lines, now with the values behind:

Molecule: HSPH1 (from UniProt Q92598 1-858)
- binding: binds

Molecule: nucleoporin Nup210 (from UniProt Q8TEM1 27-1887)
- binding: binds

B2: nucleoporin Nup107 (protein, UniProt P57740 1-925)
chain: MDRSGFGEISSPVIREAEVTRTARKQSAQKRVLLQASQDENFGNTTPRNQVIPRTPSSFRQPFTPTSRSLLRQPDISCILGTGGKSPRLTQSSGFFGNLSMVTNLDDSNWAAAFSSQRSGLFTNTEPHSITEDVTISAVMLREDDPGEAASMSMFSDFLQSFLKHSSSTVFDLVEEYENICGSQVNILSKIVSRATPGLQKFSKTASMLWLLQQEMVTWRLLASLYRDRIQSALEEESVFAVTAVNASEKTVVEALFQRDSLVRQSQLVVDWLESIAKDEIGEFSDNIEFYAKSVYWENTLHTLKQRQLTSYVGSVRPLVTELDPDAPIRQKMPLDDLDREDEVRLLKYLFTLIRAGMTEEAQRLCKRCGQAWRAATLEGWKLYHDPNVNGGTELEPVEGNPYRRIWKISCWRMAEDELFNRYERAIYAALSGNLKQLLPVCDTWEDTVWAYFRVMVDSLVEQEIQTSVATLDETEELPREYLGANWTLEKVFEELQATDKKRVLEENQEHYHIVQKFLILGDIDGLMDEFSKWLSKSRNNLPGHLLRFMTHLILFFRTLGLQTKEEVSIEVLKTYIQLLIREKHTNLIAFYTCHLPQDLAVAQYALFLESVTEFEQRHHCLELAKEADLDVATITKTVVENIRKKDNGEFSHHDLAPALDTGTTEEDRLKIDVIDWLVFDPAQRAEALKQGNAIMRKFLASKKHEAAKEVFVKIPQDSIAEIYNQCEEQGMESPLPAEDDNAIREHLCIRAYLEAHETFNEWFKHMNSVPQKPALIPQPTFTEKVAHEHKEKKYEMDFGIWKGHLDALTADVKEKMYNVLLFVDGGWMVDVREDAKEDHERTHQMVLLRKLCLPMLCFLLHTILHSTGQYQECLQLADMVSSERHKLYLVFSKEELRKLLQKLRESSLMLLDQGLDPLGYEIQL
- binding: binds

B3: nucleoporin Nup93 (protein, UniProt Q8N1F7 1-819)
chain: MDTEGFGELLQQAEQLAAETEGISELPHVERNLQEIQQAGERLRSRTLTRTSQETADVKASVLLGSRGLDISHISQRLESLSAATTFEPLEPVKDTDIQGFLKNEKDNALLSAIEESRKRTFGMAEEYHRESMLVEWEQVKQRILHTLLASGEDALDFTQESEPSYISDVGPPGRSSLDNIEMAYARQIYIYNEKIVNGHLQPNLVDLCASVAELDDKSISDMWTMVKQMTDVLLTPATDALKNRSSVEVRMEFVRQALAYLEQSYKNYTLVTVFGNLHQAQLGGVPGTYQLVRSFLNIKLPAPLPGLQDGEVEGHPVWALIYYCMRCGDLLAASQVVNRAQHQLGEFKTWFQEYMNSKDRRLSPATENKLRLHYRRALRNNTDPYKRAVYCIIGRCDVTDNQSEVADKTEDYLWLKLNQVCFDDDGTSSPQDRLTLSQFQKQLLEDYGESHFTVNQQPFLYFQVLFLTAQFEAAVAFLFRMERLRCHAVHVALVLFELKLLLKSSGQSAQLLSHEPGDPPCLRRLNFVRLLMLYTRKFESTDPREALQYFYFLRDEKDSQGENMFLRCVSELVIESREFDMILGKLENDGSRKPGVIDKFTSDTKPIINKVASVAENKGLFEEAAKLYDLAKNADKVLELMNKLLSPVVPQISAPQSNKERLKNMALSIAERYRAQGISANKFVDSTFYLLLDLITFFDEYHSGHIDRAFDIIERLKLVPLNQESVEERVAAFRNFSDEIRHNLSEVLLATMNILFTQFKRLKGTSPSSSSRPQRVIEDRDSQLRSQARTLITFAGMIPYRTSGDTNARLVQMEVLMN
- binding: binds
